Results deposited as PubChem BioAssay AID493246 (Drosophila RNAi Screening Center, 2011)

Aim: 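Genes fly cells need to grow and stay alive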 (primary screen)
System: Drosophila Kc and S2R+ cells
Reagent: long dsRNA against Drosophila genes
Read-out: 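Cell number per well after knock-down, printed as raw plate values; calls were based on per-plate z-scores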
Scale: Kc cell number and S2R+ cell number: higher = more cells remaining
Rule for the call: 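Active when the per-plate z-score of cell number is 3 or more in the direction of fewer cells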
The screen tested about 21,000 reagents; this is a random part of those with a known target gene and a result. Of all reagents, 429 (2%) are marked active. 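Values are raw and not normalised between plates; calls rest on per-plate z-scores that were not deposited.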 A number with no mark means an inactive call. The record does not give: the amount of reagent, the time to read-out.

no.	gene	dsRNA	Kc cell number, rep 1	Kc cell number, rep 2	S2R+ cell number, rep 1	S2R+ cell number, rep 2
1	Hsp23	DRSC11188	1.31e6	1.35e6	1.32e6	1.29e6
2	CG6357	DRSC06979	1.40e6	1.47e6	1.08e6	1.17e6
3	Cdc16	DRSC16920	1.58e6	1.58e6	1.04e6	1.12e6
4	sim	DRSC17054	1.37e6	1.38e6	1.10e6	1.23e6
5	smg	DRSC11397	1.22e6	1.28e6	1.20e6	1.17e6
6	Polr1F	DRSC02278	1.23e6	1.35e6	5.57e5	5.43e5
7	ND4 (retired record)	DRSC21269	1.87e6	1.86e6	1.18e6	1.36e6
8	CG16762	DRSC08493	1.48e6	1.37e6	1.09e6	1.38e6
9	Caf1-105	DRSC06209	1.41e6	1.49e6	1.23e6	1.37e6

Quoted from the entries so far (4 entries):
no.	gene	dsRNA	Kc cell number, rep 1	Kc cell number, rep 2	S2R+ cell number, rep 1	S2R+ cell number, rep 2
6	Polr1F	DRSC02278	1.23e6	1.35e6	5.57e5	5.43e5
7	ND4 (retired record)	DRSC21269	1.87e6	1.86e6	1.18e6	1.36e6
8	CG16762	DRSC08493	1.48e6	1.37e6	1.09e6	1.38e6
9	Caf1-105	DRSC06209	1.41e6	1.49e6	1.23e6	1.37e6

Continued.
no.	gene	dsRNA	Kc cell number, rep 1	Kc cell number, rep 2	S2R+ cell number, rep 1	S2R+ cell number, rep 2
10	CG11899	DRSC16656	1.44e6	1.45e6	1.01e6	1.15e6
11	Gar1	DRSC04441	1.52e6	1.62e6	1.31e6	5.09e5
12	lin-52	DRSC18106	1.46e6	1.48e6	1.03e6	1.11e6
13	t-Grip128	DRSC07853	1.47e6	1.42e6	9.71e5	1.18e6
14	CG10286	DRSC12520	1.47e6	1.61e6	1.38e6	1.45e6
15	CG12817	DRSC14555	1.45e6	1.49e6	1.27e6	1.35e6
16	CG6695	DRSC16098	1.48e6	1.49e6	1.16e6	1.21e6
17	Ube4B	DRSC03277	1.31e6	1.34e6	1.18e6	1.27e6
18	CG31826	DRSC03357	1.72e6	1.68e6	1.35e6	1.47e6
19	bcn92	DRSC18741	1.71e6	1.78e6	1.16e6	1.33e6
20	LS2	DRSC04340	1.64e6	1.64e6	1.27e6	1.42e6
21	Cyp310a1	DRSC03301	1.31e6	1.35e6	1.19e6	1.24e6
22	I-3	DRSC20479	1.56e6	1.50e6	1.10e6	1.21e6
23	CG5895	DRSC10554	1.44e6	1.79e6	1.40e6	1.58e6
24	Ufsp2	DRSC10231	1.47e6	1.49e6	1.34e6	1.33e6
